Source: publication PMC12390632
Results are given in words; binding and its absence hold for the method and conditions named. Binding seen in cells or lysates may run through a third protein. Some results given as binding are weak or reduced against the parent protein; the word gives no strength.

Protein sequences, listed by entry. Tags and fused reporters are not part of them. Residues count along the entry.
UniProt P21926: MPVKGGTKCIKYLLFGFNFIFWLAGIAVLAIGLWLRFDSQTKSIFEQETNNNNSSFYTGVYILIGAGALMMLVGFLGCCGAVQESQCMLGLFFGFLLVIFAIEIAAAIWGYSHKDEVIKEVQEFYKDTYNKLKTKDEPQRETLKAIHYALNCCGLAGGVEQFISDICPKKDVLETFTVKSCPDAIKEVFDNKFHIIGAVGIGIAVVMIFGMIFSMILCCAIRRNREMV
UniProt P05362, residues 28-532: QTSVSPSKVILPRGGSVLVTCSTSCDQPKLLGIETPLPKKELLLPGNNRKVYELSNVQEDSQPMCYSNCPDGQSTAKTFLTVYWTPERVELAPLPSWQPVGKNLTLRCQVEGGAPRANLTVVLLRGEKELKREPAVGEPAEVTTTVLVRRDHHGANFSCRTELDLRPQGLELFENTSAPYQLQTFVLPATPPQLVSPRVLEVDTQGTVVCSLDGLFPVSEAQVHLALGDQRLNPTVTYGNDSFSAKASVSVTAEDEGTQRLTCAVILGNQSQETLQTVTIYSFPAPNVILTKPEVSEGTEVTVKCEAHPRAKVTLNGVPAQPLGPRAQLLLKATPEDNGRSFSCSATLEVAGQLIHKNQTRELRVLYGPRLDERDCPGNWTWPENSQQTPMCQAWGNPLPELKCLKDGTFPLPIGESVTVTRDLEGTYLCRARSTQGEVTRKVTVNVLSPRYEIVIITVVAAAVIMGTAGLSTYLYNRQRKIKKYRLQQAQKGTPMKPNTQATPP

Molecular target: CD9 (tetraspanin CD9), endogenous (human (endogenous in SW480 and A549)) (UniProt P21926)
Assay: proximity ligation

## ICAM-1, endogenous (from UniProt P05362 28-532)
  binding: binds
